# Data taken from publication PMC4330364.
# Amino acid sequences for entries named in this document (tags omitted).
# UniProt O14980: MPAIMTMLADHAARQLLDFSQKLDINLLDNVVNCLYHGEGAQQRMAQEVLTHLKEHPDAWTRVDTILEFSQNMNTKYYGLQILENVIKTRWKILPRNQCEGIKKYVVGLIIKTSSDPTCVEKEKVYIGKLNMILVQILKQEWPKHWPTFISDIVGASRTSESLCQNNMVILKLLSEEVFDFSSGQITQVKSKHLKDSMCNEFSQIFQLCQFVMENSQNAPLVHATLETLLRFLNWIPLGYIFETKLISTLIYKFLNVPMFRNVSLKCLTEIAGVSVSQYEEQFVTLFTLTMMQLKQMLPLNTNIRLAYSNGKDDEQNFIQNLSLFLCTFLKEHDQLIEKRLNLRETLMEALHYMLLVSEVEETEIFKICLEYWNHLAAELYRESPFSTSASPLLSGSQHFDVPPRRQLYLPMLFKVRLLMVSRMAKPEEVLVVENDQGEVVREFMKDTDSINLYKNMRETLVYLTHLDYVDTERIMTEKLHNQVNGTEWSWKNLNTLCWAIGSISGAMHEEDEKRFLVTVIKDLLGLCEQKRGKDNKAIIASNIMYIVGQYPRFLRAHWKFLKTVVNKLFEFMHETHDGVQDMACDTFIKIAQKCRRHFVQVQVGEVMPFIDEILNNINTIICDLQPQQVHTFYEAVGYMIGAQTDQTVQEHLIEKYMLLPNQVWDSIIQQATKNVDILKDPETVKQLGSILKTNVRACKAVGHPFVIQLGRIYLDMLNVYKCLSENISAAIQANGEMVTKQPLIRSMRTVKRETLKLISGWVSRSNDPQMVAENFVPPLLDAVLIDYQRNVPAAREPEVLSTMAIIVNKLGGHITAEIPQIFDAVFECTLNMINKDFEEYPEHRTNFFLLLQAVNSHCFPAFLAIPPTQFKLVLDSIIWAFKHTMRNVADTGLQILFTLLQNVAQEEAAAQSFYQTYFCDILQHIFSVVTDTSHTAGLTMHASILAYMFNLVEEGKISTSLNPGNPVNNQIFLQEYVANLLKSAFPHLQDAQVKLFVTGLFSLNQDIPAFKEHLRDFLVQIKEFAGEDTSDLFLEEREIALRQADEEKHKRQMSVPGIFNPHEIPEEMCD
# UniProt Q9HAV4: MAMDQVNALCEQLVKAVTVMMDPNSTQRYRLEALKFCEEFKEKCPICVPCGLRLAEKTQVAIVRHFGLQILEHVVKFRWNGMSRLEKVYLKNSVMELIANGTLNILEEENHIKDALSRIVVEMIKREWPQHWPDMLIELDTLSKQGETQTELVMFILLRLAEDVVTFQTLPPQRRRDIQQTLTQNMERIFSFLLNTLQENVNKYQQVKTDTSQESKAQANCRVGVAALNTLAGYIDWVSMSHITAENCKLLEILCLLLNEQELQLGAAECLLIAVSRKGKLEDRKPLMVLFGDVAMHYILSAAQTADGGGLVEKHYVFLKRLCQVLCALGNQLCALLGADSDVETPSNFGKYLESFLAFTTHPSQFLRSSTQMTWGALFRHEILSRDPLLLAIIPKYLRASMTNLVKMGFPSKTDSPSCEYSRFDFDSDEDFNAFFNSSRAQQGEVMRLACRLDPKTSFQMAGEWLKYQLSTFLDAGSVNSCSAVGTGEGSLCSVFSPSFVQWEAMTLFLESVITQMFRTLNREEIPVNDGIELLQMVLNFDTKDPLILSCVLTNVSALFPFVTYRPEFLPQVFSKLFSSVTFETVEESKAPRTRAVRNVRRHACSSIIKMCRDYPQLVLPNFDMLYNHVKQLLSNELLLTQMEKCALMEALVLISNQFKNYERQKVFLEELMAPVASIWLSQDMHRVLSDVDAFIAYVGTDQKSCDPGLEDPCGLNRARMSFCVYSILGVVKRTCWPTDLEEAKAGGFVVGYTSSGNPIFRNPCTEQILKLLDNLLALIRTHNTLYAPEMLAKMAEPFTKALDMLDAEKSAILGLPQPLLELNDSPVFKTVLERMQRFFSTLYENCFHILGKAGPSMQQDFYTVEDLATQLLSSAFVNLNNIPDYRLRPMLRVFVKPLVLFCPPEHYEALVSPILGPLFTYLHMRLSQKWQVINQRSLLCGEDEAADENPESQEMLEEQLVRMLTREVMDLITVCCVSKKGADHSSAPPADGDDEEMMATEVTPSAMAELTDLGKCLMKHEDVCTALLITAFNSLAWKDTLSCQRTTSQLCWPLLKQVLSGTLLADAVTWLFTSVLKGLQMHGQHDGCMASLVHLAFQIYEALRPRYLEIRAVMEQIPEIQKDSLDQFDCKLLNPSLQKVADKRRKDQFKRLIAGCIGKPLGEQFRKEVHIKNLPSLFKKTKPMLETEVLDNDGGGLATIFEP
# No constants are given. Whether binding was seen depends on the method and setting. In cells and extracts the contact can be indirect. These calls come from enrichment with a bait or labelling near it, and not all partners need be listed. For some of these results: No binding means not detected with the bait.
# B1: XPOT (protein, UniProt O43592 1-962)
# chain: MDEQALLGLNPNADSDFRQRALAYFEQLKISPDAWQVCAEALAQRTYSDDHVKFFCFQVLEHQVKYKYSELTTVQQQLIRETLISWLQAQMLNPQPEKTFIRNKAAQVFALLFVTEYLTKWPKFFFDILSVVDLNPRGVDLYLRILMAIDSELVDRDVVHTSEEARRNTLIKDTMREQCIPNLVESWYQILQNYQFTNSEVTCQCLEVVGAYVSWIDLSLIANDRFINMLLGHMSIEVLREEACDCLFEVVNKGMDPVDKMKLVESLCQVLQSAGFFSIDQEEDVDFLARFSKLVNGMGQSLIVSWSKLIKNGDIKNAQEALQAIETKVALMLQLLIHEDDDISSNIIGFCYDYLHILKQLTVLSDQQKANVEAIMLAVMKKLTYDEEYNFENEGEDEAMFVEYRKQLKLLLDRLAQVSPELLLASVRRVFSSTLQNWQTTRFMEVEVAIRLLYMLAEALPVSHGAHFSGDVSKASALQDMMRTLVTSGVSSYQHTSVTLEFFETVVRYEKFFTVEPQHIPCVLMAFLDHRGLRHSSAKVRSRTAYLFSRFVKSLNKQMNPFIEDILNRIQDLLELSPPENGHQSLLSSDDQLFIYETAGVLIVNSEYPAERKQALMRNLLTPLMEKFKILLEKLMLAQDEERQASLADCLNHAVGFASRTSKAFSNKQTVKQCGCSEVYLDCLQTFLPALSCPLQKDILRSGVRTFLHRMIICLEEEVLPFIPSASEHMLKDCEAKDLQEFIPLINQITAKFKIQVSPFLQQMFMPLLHAIFEVLLRPAEENDQSAALEKQMLRRSYFAFLQTVTGSGMSEVIANQGAENVERVLVTVIQGAVEYPDPIAQKTCFIILSKLVELWGGKDGPVGFADFVYKHIVPACFLAPLKQTFDLADAQTVLALSECAVTLKTIHLKRGPECVQYLQQEYLPSLQVAPEIIQEFCQALQQPDAKVFKNYLKVFFQRAKP
# B2: TRF2, Q15554 1-542 (protein)
# chain: MAAGAGTAGPASGPGVVRDPAASQPRKRPGREGGEGARRSDTMAGGGGSSDGSGRAAGRRASRSSGRARRGRHEPGLGGPAERGAGEARLEEAVNRWVLKFYFHEALRAFRGSRYGDFRQIRDIMQALLVRPLGKEHTVSRLLRVMQCLSRIEEGENLDCSFDMEAELTPLESAINVLEMIKTEFTLTEAVVESSRKLVKEAAVIICIKNKEFEKASKILKKHMSKDPTTQKLRNDLLNIIREKNLAHPVIQNFSYETFQQKMLRFLESHLDDAEPYLLTMAKKALKSESAASSTGKEDKQPAPGPVEKPPREPARQLRNPPTTIGMMTLKAAFKTLSGAQDSEAAFAKLDQKDLVLPTQALPASPALKNKRPRKDENESSAPADGEGGSELQPKNKRMTISRLVLEEDSQSTEPSAGLNSSQEAASAPPSKPTVLNQPLPGEKNPKVPKGKWNSSNGVEEKETWVEEDELFQVQAAPDEDSTTNITKKQKWTVEESEWVKAGVQKYGEGNWAAISKNYPFVNRTAVMIKDRWRTMKRLGMN
# Columns and labels:
# [1] = biological target: Regulator of Telomere ELongation helicase 1 (RTEL1), isoform 6, stably overexpressed in 293T cells (human) (UniProt Q9NZ71); assay: affinity purification with mass spectrometry; rabbit anti-RTEL1 antibody covalently attached to protein A agarose beads, soluble lysate of 293T stably overexpressing hRTEL1; 50 mM tris pH 7.5, 300 mM NaCl, 10% glycerol, 0.1% NP40; overnight at 4°C; control: rabbit preimmune antibody; LC-MS/MS
# [2] = biological target: T1, Regulator of Telomere ELongation helicase 1 (RTEL1), isoform 6, stably overexpressed in 293T cells (human), Q9NZ71; assay: as above; settings: remark: other sources report otherwise
# T1 chain: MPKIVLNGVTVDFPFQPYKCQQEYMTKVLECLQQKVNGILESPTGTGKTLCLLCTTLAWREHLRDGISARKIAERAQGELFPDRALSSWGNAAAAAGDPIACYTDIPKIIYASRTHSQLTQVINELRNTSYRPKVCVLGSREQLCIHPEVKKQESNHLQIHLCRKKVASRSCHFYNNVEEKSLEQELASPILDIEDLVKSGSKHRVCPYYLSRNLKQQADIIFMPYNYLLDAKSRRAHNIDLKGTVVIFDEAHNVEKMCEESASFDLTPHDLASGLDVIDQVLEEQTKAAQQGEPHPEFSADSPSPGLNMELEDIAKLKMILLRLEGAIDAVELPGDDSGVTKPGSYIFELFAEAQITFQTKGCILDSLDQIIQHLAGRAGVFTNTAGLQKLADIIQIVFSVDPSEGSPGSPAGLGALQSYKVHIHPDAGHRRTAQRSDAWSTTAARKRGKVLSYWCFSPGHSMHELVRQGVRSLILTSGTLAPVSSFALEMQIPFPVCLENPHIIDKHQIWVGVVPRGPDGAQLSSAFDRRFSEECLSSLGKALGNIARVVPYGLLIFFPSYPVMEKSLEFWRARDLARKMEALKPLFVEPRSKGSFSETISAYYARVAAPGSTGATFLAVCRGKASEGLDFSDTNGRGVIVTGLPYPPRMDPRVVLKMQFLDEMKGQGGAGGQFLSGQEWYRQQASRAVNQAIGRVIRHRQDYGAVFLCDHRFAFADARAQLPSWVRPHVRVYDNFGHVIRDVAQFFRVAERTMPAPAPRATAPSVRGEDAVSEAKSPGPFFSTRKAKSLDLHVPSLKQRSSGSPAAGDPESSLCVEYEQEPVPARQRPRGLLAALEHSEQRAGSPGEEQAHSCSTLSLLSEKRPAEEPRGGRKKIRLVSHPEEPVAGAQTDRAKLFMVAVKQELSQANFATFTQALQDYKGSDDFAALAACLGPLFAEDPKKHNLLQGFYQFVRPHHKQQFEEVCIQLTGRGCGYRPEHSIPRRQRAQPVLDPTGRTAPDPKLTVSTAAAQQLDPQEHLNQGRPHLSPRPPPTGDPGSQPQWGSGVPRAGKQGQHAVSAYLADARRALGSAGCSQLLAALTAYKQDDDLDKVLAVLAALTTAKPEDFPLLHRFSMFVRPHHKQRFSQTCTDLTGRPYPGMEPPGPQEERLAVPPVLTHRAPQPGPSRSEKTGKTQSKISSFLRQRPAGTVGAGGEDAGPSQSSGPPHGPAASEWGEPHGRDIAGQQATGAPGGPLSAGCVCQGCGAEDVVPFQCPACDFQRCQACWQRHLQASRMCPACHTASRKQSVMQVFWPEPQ
Molecule,binding [1],binding [2]
XPO1 (CRM1) (from UniProt O14980 1-1071),binds,
XPO5 (from UniProt Q9HAV4 1-1204),binds,
B1,binds,
B2,,no binding
